# Measured values taken from publication PMC11001197, “The PII protein interacts with the Amt ammonium transport and modulates nitrate/nitrite assimilation in mycobacteria” (Frontiers in Microbiology, 2024).
# By UniProt entry, the sequences of proteins in these tests, tags left out.
# UniProt P96890: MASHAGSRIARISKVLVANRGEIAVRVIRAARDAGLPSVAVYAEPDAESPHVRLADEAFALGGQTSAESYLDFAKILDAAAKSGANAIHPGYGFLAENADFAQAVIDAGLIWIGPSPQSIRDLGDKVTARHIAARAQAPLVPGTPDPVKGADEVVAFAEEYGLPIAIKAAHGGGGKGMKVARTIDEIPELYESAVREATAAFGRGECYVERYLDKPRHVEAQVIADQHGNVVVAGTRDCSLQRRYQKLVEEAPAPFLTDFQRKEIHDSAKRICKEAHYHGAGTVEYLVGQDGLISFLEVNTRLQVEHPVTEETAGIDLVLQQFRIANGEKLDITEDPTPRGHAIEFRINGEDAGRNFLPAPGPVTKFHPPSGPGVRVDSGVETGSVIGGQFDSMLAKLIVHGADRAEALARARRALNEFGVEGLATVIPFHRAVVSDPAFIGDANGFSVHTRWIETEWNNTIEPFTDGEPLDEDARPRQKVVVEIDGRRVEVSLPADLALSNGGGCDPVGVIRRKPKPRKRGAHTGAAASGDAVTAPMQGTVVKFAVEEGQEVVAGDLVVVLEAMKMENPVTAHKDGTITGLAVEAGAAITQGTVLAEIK
# UniProt P9WN31: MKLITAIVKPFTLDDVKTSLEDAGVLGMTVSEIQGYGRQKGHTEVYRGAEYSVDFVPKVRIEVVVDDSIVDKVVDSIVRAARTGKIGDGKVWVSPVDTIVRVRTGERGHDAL
# These are yes or no findings as the source states them, for the method shown.
# Target: M. tuberculosis AccA3, His tag fusion (α-subunit of the acyl-CoA carboxylases) (M. tuberculosis) (UniProt P96890)
# Assay: pull-down; His-AccA3 as bait with PII in the presence of ADP instead of ATP (Supplementary Figure S2A); ADP concentration not stated; both purified
substance,measurement,value
"M. tuberculosis PII protein (GlnB, encoded by Rv2919c), without tags (from UniProt P9WN31 1-112)",binding,no binding (condition: in the presence of ADP)
